Test results reported in patent US20250122147A1, “ARYL CYCLOHEXANEDIONE DERIVATIVE OR SALT THEREOF, PEST CONTROL AGENT CONTAINING SAME, AND METHOD FOR USE THEREOF” (ADEKA Corporation, priority 2021, published 2025).
Some of these results come from one statement about several compounds together. At least one compound was matched to its structure with a doubt left.

Test system: Dirofilaria immitis
Assay: Influence evaluation test on the growth of Dirofilaria immitis
Settings: final concentration 10 μM

O=C1CC(c2ccc(C(F)(F)F)cc2)CC(O)=C1C(=O)Nc1ccc2c(c1)OCO2 (stereo not shown) [1-55] was tested, and the “development inhibition rate from the L3 stage larva to the L4-stage larva” value was “not less than 50%”.
